{"sequences": {"note": "Chains of the proteins cited; added tags and fusions are not shown. Lines headed by an entry give the natural chain unless they say otherwise; changes in a name come on top. Residues count along the entry.", "UniProt O88485": "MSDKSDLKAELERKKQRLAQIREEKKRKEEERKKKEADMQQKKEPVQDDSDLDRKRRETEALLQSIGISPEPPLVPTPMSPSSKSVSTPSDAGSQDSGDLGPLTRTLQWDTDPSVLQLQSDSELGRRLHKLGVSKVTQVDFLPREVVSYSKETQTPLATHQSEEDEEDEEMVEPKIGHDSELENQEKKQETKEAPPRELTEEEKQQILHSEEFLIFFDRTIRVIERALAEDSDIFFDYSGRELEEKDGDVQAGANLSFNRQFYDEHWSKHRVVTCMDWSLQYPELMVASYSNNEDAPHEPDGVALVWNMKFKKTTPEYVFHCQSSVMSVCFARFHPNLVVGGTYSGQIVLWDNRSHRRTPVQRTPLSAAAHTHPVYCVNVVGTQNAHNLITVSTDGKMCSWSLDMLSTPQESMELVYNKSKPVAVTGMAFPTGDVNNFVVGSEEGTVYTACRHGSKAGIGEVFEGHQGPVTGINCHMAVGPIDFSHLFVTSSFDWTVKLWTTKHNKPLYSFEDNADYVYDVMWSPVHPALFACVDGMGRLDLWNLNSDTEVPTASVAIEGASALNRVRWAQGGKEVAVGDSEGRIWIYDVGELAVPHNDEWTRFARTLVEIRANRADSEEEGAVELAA", "UniProt Q63100": "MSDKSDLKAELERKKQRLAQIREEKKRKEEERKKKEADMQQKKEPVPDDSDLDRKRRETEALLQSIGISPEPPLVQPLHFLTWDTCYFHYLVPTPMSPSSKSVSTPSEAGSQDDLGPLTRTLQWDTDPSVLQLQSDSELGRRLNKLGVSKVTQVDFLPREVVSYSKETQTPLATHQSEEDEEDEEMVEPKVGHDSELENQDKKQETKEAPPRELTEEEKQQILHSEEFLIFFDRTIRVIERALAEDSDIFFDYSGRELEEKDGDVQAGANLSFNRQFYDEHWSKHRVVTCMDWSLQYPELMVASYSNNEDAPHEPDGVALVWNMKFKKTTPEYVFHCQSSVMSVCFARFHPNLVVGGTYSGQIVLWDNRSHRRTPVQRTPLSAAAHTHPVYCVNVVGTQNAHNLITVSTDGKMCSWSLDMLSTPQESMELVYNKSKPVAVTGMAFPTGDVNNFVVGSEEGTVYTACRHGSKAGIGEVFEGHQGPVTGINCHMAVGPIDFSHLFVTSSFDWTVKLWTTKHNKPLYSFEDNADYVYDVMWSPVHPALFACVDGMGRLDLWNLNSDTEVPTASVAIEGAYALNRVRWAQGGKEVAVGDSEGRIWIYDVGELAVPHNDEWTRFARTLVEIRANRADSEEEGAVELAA", "UniProt O88447": "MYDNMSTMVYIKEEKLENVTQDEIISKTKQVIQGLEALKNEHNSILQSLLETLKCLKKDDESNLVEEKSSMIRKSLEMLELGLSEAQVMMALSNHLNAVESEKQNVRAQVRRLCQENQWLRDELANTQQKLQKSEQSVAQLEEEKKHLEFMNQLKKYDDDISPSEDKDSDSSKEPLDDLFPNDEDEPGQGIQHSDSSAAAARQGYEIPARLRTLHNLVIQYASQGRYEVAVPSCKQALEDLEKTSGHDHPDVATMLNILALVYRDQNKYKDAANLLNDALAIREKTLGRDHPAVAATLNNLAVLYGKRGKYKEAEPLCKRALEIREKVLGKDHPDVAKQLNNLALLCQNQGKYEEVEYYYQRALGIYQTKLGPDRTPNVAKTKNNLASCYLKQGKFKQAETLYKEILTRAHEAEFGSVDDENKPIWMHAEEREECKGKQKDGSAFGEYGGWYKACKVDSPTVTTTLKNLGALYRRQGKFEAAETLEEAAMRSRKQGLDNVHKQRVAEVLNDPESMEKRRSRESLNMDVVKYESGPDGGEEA", "UniProt P33175, residues 389-637": "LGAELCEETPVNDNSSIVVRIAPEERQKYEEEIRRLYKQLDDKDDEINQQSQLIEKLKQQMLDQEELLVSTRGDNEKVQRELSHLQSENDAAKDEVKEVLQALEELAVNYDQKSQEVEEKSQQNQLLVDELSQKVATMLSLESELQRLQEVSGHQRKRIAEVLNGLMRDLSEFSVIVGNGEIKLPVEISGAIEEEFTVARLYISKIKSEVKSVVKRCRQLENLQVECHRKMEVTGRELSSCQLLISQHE", "UniProt O88448": "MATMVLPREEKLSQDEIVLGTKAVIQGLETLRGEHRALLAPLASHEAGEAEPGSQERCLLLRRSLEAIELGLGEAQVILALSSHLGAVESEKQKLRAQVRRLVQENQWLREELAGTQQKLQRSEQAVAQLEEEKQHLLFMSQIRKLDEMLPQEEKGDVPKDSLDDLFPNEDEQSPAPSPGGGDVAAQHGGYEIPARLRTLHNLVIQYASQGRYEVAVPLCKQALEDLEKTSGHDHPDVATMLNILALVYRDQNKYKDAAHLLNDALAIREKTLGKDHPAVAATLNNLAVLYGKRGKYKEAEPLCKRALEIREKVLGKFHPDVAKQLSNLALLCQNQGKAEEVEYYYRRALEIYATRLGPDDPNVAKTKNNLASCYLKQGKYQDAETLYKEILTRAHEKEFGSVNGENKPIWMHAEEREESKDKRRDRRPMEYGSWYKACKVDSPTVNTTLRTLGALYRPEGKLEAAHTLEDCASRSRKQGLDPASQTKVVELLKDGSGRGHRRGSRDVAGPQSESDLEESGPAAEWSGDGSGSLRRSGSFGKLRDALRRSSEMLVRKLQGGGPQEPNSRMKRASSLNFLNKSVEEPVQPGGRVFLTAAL"}, "source": "paper PMC4893161", "about": "“The Dynamic Localization of Cytoplasmic Dynein in Neurons Is Driven by Kinesin-1” (Neuron, 2016)", "key": {"[1]": {"target": "mCherry-tagged DIC1a WD1AA (alanine mutation of WD1) (UniProt O88485)", "assay": "co-IP; COS cells cotransfected with mCherry-tagged DIC1a (wild-type or WD mutants) and HA-tagged KLC1 or KLC2; IP with anti-mCherry; western blotting with anti-DIC and anti-HA"}, "[2]": {"target": "mCherry-tagged DIC1a WD2AA (alanine mutation of WD2) (UniProt O88485)", "assay": "co-IP; COS cells cotransfected with mCherry-tagged DIC1a (wild-type or WD mutants) and HA-tagged KLC1 or KLC2; IP with anti-mCherry; western blotting with anti-DIC and anti-HA"}, "[3]": {"target": "DIC1a, bait of the yeast two-hybrid screen (UniProt Q63100)", "assay": "two-hybrid; yeast two-hybrid screen for binding partners of DIC1a"}}, "note": "These are yes or no findings as the source states them, for the method shown. Binding calls can cover weak binding; strength is not graded here. For some assays here: Binding seen in cells or lysates may run through a third protein."}
{"substance": "HA-tagged KLC1 (kinesin light chain 1) (from UniProt O88447 1-541)", "values": [{"measurement": "binding", "setting": "[1]", "result": "binds"}, {"measurement": "binding", "setting": "[2]", "result": "binds"}]}
{"substance": "KIF5A residues 389–637, isolated in the yeast two-hybrid screen (from UniProt P33175 389-637) (domain or fragment)", "values": [{"measurement": "binding", "setting": "[3]", "result": "binds"}]}
{"substance": "HA-tagged KLC2 (kinesin light chain 2) (from UniProt O88448 1-599)", "values": [{"measurement": "binding", "setting": "[1]", "result": "binds"}, {"measurement": "binding", "setting": "[2]", "result": "binds"}]}
